{"source": "patent US20240165259A1", "about": "“BIOORTHOGONAL REACTION SUITABLE FOR CLICK/UNCLICK APPLICATIONS” (DANA-FARBER CANCER INSTITUTE, INC., priority 2021, published 2024)", "key": {"[1]": {"assay": "Reaction monitoring by LCMS of cyclooctyne 22″ with hydroxylamines 3″ and 4″", "type": "physicochemical", "settings": "2 mM hydroxylamine, 2 mM cyclooctyne 22″, 50% MeOH/H2O"}, "[2]": {"assay": "Second-order kinetics of cyclooctyne hydroamination by N,N-diethylhydroxylamine (NMR; competition experiment for 10)", "type": "physicochemical", "settings": "room temperature", "method": "Using NMR spectroscopy to monitor reaction progress, the second order rate constants for the reaction of N,N-diethylhydroxyl amine (1) with a panel of cyclooctynes 2-10 in d3-acetonitrile was determined at room temperature (FIG. 3).\nAll kinetics experiments were carried out at room temperature in CD3CN. Reactions were monitored via NMR spectroscopy using an internal standard. Second order kinetics were performed by combining cyclooctynes and N,N-diethylhydroxylamine in a 1:1 ratio. […] The reported errors for rate constants are based on the standard deviation of the mean for experiments performed in triplicate.\nThe second order rate constant for difluorocyclooctyne 10 was determined using a competition experiment with carbamate 9. […] The solution was transferred to an NMR tube and the product ratio (S14:S13) was determined by ^1HNMR spectroscopy using 1,3,5-trimethoxylbenzene as an internal standard. […] The reported error for the rate constant is the standard deviation of the mean for experiments performed in triplicate."}}, "note": "For some of these results: At least one structure is not confirmed: it was looked up by name or label, or the drawing left a doubt. Some results were stated once for a whole list of compounds, not compound by compound."}
{"smiles": "CC(C)N(O)CCOCCNC(=O)OC(C)(C)C", "note": "[3″, tert-Butyl (2-(2-(hydroxy(isopropyl)amino)ethoxy)ethyl)carbamate]", "values": [{"measurement": "time over which cyclooctyne was fully consumed", "setting": "[1]", "value": "≤ 6", "unit": "h"}]}
{"smiles": "CC(C)(C)OC(=O)NCCOCCN(O)C(C)(C)C", "note": "[4″, tert-Butyl (2-(2-(tert-butyl(hydroxy)amino)ethoxy)ethyl)carbamate]", "values": [{"measurement": "time over which cyclooctyne was fully consumed", "setting": "[1]", "value": "≤ 6", "unit": "h"}]}
{"smiles": "OC[C@H]1[C@H]2CCC#CCC[C@@H]12", "note": "[compound 3, bicyclo[6.1.0]nonyne]", "values": [{"measurement": "rate acceleration over cyclooctyne (2)", "setting": "[2]; CD3CN", "value": 6.7, "unit": "fold"}]}
{"smiles": "FC1(F)C#CCCCCC1", "note": "[compound 10, difluorocyclooctyne]", "values": [{"measurement": "second order rate constant (k2) from competition experiment with carbamate 9", "setting": "[2]; 1:4 ratio of 10 and 9, product ratio S14:S13 multiplied with k2 of 9, CD3CN", "value": "83.6 ± 14.9", "unit": "M⁻¹ s⁻¹"}]}
